Data source: PubChem BioAssay AID1159579 (Peter MacCallum Cancer Centre, 2015)
Test: 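Retest candidate lymphatic endothelial migration regulators using several independent siRNAs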 (follow-up of hits). Cells: human dermal lymphatic endothelial cells. Reagents: single siRNA against human genes, 25 nM. Read-out: 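High content images of wound closure area and cell nuclei counts, each the average of two wells, expressed against mock transfection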. Scale: migration relative to mock: higher = more migration into the scratch; mean nuclei count: higher = more cells remaining. Hit rule: 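a ratio of at most 0.6 or at least 1.3 marks altered migration and an active call; a mean nuclei count under 3300 forces an inactive call regardless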. Calls: active = migration changed (impaired or accelerated); inactive = no migration change, or too few cells.
Here is an unselected part of about 2,000 deposited reagents. 549 of them (27%) count as active. 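Some migration ratios are negative; siRNAs with too few cells are inactive whatever their migration ratio.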 A number with no mark means an inactive call. Reagents against one gene are numbered here. Not stated in the record: the time to read-out.

Against TCL1B (TCL1 family AKT coactivator B) #1, the values are migration relative to mock 0.11 (active); migration and cell number class migration reduced; mean nuclei count 3621.
Silencing of TCL1B (TCL1 family AKT coactivator B) #2 gave: migration relative to mock 0.82; migration and cell number class no change in migration or cell number; mean nuclei count 5301.
Depletion of TCL1B (TCL1 family AKT coactivator B) #3 resulted in: migration relative to mock 1.12; migration and cell number class no change in migration or cell number; mean nuclei count 4746.
With knock-down of TCL1B (TCL1 family AKT coactivator B) #4, the screen gave migration relative to mock 0.8; migration and cell number class no change in migration or cell number; mean nuclei count 4950.
After knock-down of CD151 (CD151 molecule (Raph blood group)) #1, the record shows migration relative to mock 1.27; migration and cell number class no change in migration or cell number; mean nuclei count 5918.
CD151 (CD151 molecule (Raph blood group)) #2 scored migration relative to mock 0.92; migration and cell number class no change in migration or cell number; mean nuclei count 6588.
Knock-down of CD151 (CD151 molecule (Raph blood group)) #3 resulted in: migration relative to mock 0.7; migration and cell number class no change in migration or cell number; mean nuclei count 5151.
After knock-down of CD151 (CD151 molecule (Raph blood group)) #4, the screen gave migration relative to mock 0.78; migration and cell number class no change in migration or cell number; mean nuclei count 5502.
Depletion of ADCK1 (aarF domain containing kinase 1) #1 gave: migration relative to mock 0.08 (active); migration and cell number class migration reduced; mean nuclei count 4067.
With knock-down of ADCK1 (aarF domain containing kinase 1) #2 the results were migration relative to mock 0.71; migration and cell number class no change in migration or cell number; mean nuclei count 7375.
For ADCK1 (aarF domain containing kinase 1) #3, the entry reads migration relative to mock 0.94; migration and cell number class no change in migration or cell number; mean nuclei count 4986.
Knock-down of ADCK1 (aarF domain containing kinase 1) #4 gave: migration relative to mock 0.86; migration and cell number class no change in migration or cell number; mean nuclei count 7139.
With knock-down of SEPTIN4 (septin 4) #1 the results were migration relative to mock 0.82; migration and cell number class no change in migration or cell number; mean nuclei count 6215.
Silencing of SEPTIN4 (septin 4) #2 came out at: migration relative to mock 0.82; migration and cell number class no change in migration or cell number; mean nuclei count 4972.
SEPTIN4 (septin 4) #3 showed migration relative to mock 0.2 (active); migration and cell number class migration reduced; mean nuclei count 4354.
SEPTIN4 (septin 4) #4 scored migration relative to mock -0.2 (active); migration and cell number class migration reduced; mean nuclei count 3320.

Targets listed so far whose target name starts with T or t:
TCL1B (TCL1 family AKT coactivator B) #1: migration relative to mock = 0.11 (active); migration and cell number class = migration reduced; mean nuclei count = 3621
TCL1B (TCL1 family AKT coactivator B) #2: migration relative to mock = 0.82; migration and cell number class = no change in migration or cell number; mean nuclei count = 5301
TCL1B (TCL1 family AKT coactivator B) #3: migration relative to mock = 1.12; migration and cell number class = no change in migration or cell number; mean nuclei count = 4746
TCL1B (TCL1 family AKT coactivator B) #4: migration relative to mock = 0.8; migration and cell number class = no change in migration or cell number; mean nuclei count = 4950
